PubChem BioAssay AID1259308 – NCATS | 2017
The deposit covers about 59,000 reagents; below is a random part of them. About 1,510 of them (2.6%) count as active. 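Calls use total luciferase alone and ignore viability, so some active siRNAs may act by altering cell number.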 The numbers tell different reagents against one gene apart. Not all columns of the deposit are shown.

- Purpose: 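Genes whose loss raises luciferase production in HEK293 cells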 (primary screen)
- Cell system: human HEK293 embryonic kidney cells stably expressing firefly luciferase (HEK-CMV-Luc2-Hygro)
- Reagent: single siRNA against human genes, 0.8 pmol siRNA per well
- Time to read-out: 72 h
- Read-out: 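Reporter luminescence and viable-cell signal on separate replicate plates, given as percent of non-targeting control and median/MAD z-scores, plus per-cell luciferase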
- Direction: total luciferase, z-score: higher = more reporter protein produced
- Active means: 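An siRNA counts as active if its total luciferase robust z-score exceeds 3; genes with two or more such siRNAs out of three were retested with fresh siRNAs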
- Meaning of the calls: active = raised luciferase; inactive = no rise

IGFL1 (GeneID 374918) #1
- total luciferase, z-score: 0.688
- activity call: inactive

IGFL1 (GeneID 374918) #2
- total luciferase, z-score: -1.16
- activity call: inactive

IGFL1 (GeneID 374918) #3
- total luciferase, z-score: -1.25
- activity call: inactive

NENF (GeneID 29937) #1
- total luciferase, z-score: -1.22
- activity call: inactive

NENF (GeneID 29937) #2
- total luciferase, z-score: -2.07
- activity call: inactive

NENF (GeneID 29937) #3
- total luciferase, z-score: -0.464
- activity call: inactive

CYTL1 (GeneID 54360) #1
- total luciferase, z-score: 0.467
- activity call: inactive

CYTL1 (GeneID 54360) #2
- total luciferase, z-score: 0.914
- activity call: inactive

CYTL1 (GeneID 54360) #3
- total luciferase, z-score: 1.37
- activity call: inactive

HAND2 (GeneID 9464) #1
- total luciferase, z-score: -0.503
- activity call: inactive

HAND2 (GeneID 9464) #2
- total luciferase, z-score: -0.972
- activity call: inactive

HAND2 (GeneID 9464) #3
- total luciferase, z-score: 0.223
- activity call: inactive

POM121L12 (GeneID 285877) #1
- total luciferase, z-score: 0.569
- activity call: inactive

POM121L12 (GeneID 285877) #2
- total luciferase, z-score: 1.51
- activity call: inactive

POM121L12 (GeneID 285877) #3
- total luciferase, z-score: -0.8
- activity call: inactive

MTMR8 (GeneID 55613) #1
- total luciferase, z-score: 0.943
- activity call: inactive

MTMR8 (GeneID 55613) #2
- total luciferase, z-score: -0.253
- activity call: inactive

MTMR8 (GeneID 55613) #3
- total luciferase, z-score: 0.702
- activity call: inactive

PLXNB2 (GeneID 23654) #1
- total luciferase, z-score: 2.79
- activity call: inactive

PLXNB2 (GeneID 23654) #2
- total luciferase, z-score: 0.148
- activity call: inactive

PLXNB2 (GeneID 23654) #3
- total luciferase, z-score: -0.333
- activity call: inactive

MLYCD (GeneID 23417) #1
- total luciferase, z-score: -1.55
- activity call: inactive

MLYCD (GeneID 23417) #2
- total luciferase, z-score: 1.26
- activity call: inactive

MLYCD (GeneID 23417) #3
- total luciferase, z-score: 0.197
- activity call: inactive

B3GAT3 (GeneID 26229) #1
- total luciferase, z-score: 0.61
- activity call: inactive

B3GAT3 (GeneID 26229) #2
- total luciferase, z-score: -1.02
- activity call: inactive

B3GAT3 (GeneID 26229) #3
- total luciferase, z-score: -1.2
- activity call: inactive

LIN28B (GeneID 389421) #1
- total luciferase, z-score: 1.7
- activity call: inactive

LIN28B (GeneID 389421) #2
- total luciferase, z-score: -2.2
- activity call: inactive

LIN28B (GeneID 389421) #3
- total luciferase, z-score: -0.538
- activity call: inactive

PBLD (GeneID 64081) #1
- total luciferase, z-score: -0.336
- activity call: inactive

PBLD (GeneID 64081) #2
- total luciferase, z-score: 0.267
- activity call: inactive

PBLD (GeneID 64081) #3
- total luciferase, z-score: -0.423
- activity call: inactive
